Data reported in publication PMC11245600, “Therapeutic potential of the secreted Kazal-type serine protease inhibitor SPINK4 in colitis” (Nature Communications, 2024).
These are yes or no findings as the source states them, for the method shown. For some assays here: Binding seen in cells or lysates may run through a third protein. Some results given as binding are weak or reduced against the parent protein; the word gives no strength. For some assays here: Sequences can lack the tags named with a protein. Values belong to the molecule of their own block, whether it stands above or below them.

What was measured:
[1] = biological target: T1, SPINK4, whole sequence, in vitro translated (wt) (UniProt O60575); assay: pull-down; in vitro translated 3xFLAG SPINK4 (wt, mut1, mut2) incubated with recombinant extracellular EGFR; anti-FLAG magnetic beads; only the binder purified
T1 sequence: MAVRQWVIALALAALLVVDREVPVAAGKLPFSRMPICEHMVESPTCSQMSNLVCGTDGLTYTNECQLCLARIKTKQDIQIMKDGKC

[2] = biological target: EGFR (epidermal growth factor receptor), endogenous, in membrane protein extract of intestinal epithelial cells (human (endogenous in NCM460 or Caco-2)) (UniProt P00533); assay: co-IP; concentrated medium of SPINK4-FLAG-overexpressing NCM460 or Caco-2 cells incubated with membrane protein extract at 4 °C overnight; anti-EGFR magnetic beads, IgG as control; washed in TBS-T
[3] = biological target: rEGFR-His (extracellular domain) (UniProt P00533); assay: ITC; rSPINK4-His (30 μM in 100 μL) titrated into rEGFR-His extracellular domain (6 μM in 300 μL); MicroCal PEAQ-ITC; control titration into PBS; both purified
[4] = biological target: EGFR (epidermal growth factor receptor), endogenous, in membrane protein extract of intestinal epithelial cells (human (endogenous in NCM460 or Caco-2)) (UniProt P00533); assay: co-IP; human-derived rSPINK4 incubated in vitro with membrane protein extract; precipitated with anti-EGFR antibody beads; only the binder purified
[5] = biological target: whole extracellular EGFR, in vitro translated (ED) (UniProt P00533); assay: pull-down; in vitro translated 3xFLAG EGFR extracellular domain or its deletions incubated with recombinant rSPINK4; anti-FLAG magnetic beads; only the binder purified

binding [1]: binds
Molecule: Fc-tagged extracellular section of EGFR (rEGFR) (from UniProt P00533 25-645) (Fc fusion)

binding [2]: binds
B1: SPINK4-FLAG from the concentrated medium of SPINK4-FLAG-overexpressing cells (protein, UniProt O60575 27-86)
chain: GKLPFSRMPICEHMVESPTCSQMSNLVCGTDGLTYTNECQLCLARIKTKQDIQIMKDGKC

binding [3]: binds weakly | binding [4]: binds | binding [5]: binds
B2: human-derived recombinant SPINK4 protein, His-tagged (rSPINK4-His) (natural protein, UniProt O60575 27-86, looked up)
chain: B1 chain
notes: Bought recombinant protein
